# Results from patent US11065343B2, “Compound bearing beta-galactoside-introduced self-immolative linker” (IntoCell Inc., priority 2016, dated 2021).
# Sequences of proteins named here, by UniProt entry; tags and fusion partners are left off. Residues count along the entry.
# UniProt P15328, 25-234 limits assumed: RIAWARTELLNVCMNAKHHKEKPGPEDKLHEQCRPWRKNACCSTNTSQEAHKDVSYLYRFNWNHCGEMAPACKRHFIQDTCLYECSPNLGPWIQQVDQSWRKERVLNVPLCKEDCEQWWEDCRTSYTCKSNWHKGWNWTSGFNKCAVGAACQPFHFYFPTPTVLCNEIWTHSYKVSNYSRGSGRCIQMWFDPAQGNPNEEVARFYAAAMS
# Legend:
# [1] = target: folate receptor (Homo sapiens, UniProt P15328); experiment: Binding affinity of ligand-drug conjugate to folic acid receptor (competition with FA-Cy5 tracer, polarized light); settings: read-out: Binding affinity to folic acid receptor IC50; KB cell plasma membrane protein, 1 nM FA-Cy5 tracer, 2 hours at 37° C.
# [2] = test system: KB cancer cell line
structure (smiles),measurement,setting,value
CCC(C)C(C(CC(=O)N1CCCC1C(OC)C(C)C(=O)NC(Cc1ccccc1)C(=O)O)OC)N(C)C(=O)C(NC(=O)C(C(C)C)N(C)C(=O)OCc1ccc(OC2OC(C(=O)O)C(O)C(O)C2O)c(C(=O)NCCOCCOCCOCCn2cc(CCCNC(=O)C(CCCCN)NC(=O)CCn3cc(CCC(=O)NCCOCCOCCNC(=O)CCC(NC(=O)c4ccc(NCc5cnc6nc(N)[nH]c(=O)c6n5)cc4)C(=O)O)nn3)nn2)c1)C(C)C (centres unmarked),IC50,[1],43.8 nM
same,IC50,[2],0.95 nM

# The structures given here were assigned with low confidence; some may be wrong.
